Results are given in words; binding and its absence hold for the method and conditions named. Some results given as binding are weak or reduced against the parent protein; the word gives no strength.

Protein sequences, listed by entry. Tags and fused reporters are not part of them. Residues count along the entry.
UniProt Q96Y68, residues 6-305: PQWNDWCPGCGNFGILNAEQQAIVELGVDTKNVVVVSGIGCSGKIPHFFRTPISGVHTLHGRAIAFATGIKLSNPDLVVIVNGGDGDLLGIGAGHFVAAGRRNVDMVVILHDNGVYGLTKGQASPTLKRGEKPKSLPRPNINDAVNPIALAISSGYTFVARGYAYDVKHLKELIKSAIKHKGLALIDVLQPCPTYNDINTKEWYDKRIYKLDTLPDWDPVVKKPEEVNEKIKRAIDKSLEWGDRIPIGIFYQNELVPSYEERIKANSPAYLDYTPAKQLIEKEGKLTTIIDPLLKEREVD

This note sets out measurements from publication PMC5020499, “Crystal structures of archaeal 2-oxoacid:ferredoxin oxidoreductases from Sulfolobus tokodaii” (Scientific Reports, 2016).

This experiment addresses T1, StOFOR1 a-subunit (STK_23000) (Sulfolobus tokodaii strain 7) (UniProt Q96Y66).
T1 sequence: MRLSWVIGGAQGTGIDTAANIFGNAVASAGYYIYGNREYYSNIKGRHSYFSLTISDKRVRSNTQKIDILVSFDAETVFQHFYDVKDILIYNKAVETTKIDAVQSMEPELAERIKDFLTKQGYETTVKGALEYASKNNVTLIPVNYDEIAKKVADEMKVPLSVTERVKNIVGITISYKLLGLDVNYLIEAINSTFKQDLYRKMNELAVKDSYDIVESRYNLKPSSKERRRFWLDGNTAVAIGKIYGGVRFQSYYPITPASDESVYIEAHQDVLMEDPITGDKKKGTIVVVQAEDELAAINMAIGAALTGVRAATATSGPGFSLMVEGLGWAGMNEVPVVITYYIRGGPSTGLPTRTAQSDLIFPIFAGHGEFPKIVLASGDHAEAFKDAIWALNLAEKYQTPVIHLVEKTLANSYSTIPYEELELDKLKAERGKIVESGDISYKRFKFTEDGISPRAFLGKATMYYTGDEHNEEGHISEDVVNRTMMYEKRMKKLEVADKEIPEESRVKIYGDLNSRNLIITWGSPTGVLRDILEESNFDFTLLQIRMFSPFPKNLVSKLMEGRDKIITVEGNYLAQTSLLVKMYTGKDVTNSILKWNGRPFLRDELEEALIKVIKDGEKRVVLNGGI
Put plainly: crystal structure; StOFOR1 co-crystallised with 50 mM 2-oxobutyrate and 1 mM CoA; sitting drop, 25 °C, 15% PEG3350, 0.1 M Tris-HCl pH 8.5, 0.1 M NaBr; 2.5 Å; two protomers in the asymmetric unit; both purified.

“StOFOR1 b-subunit (STK_22980) (from UniProt Q96Y68 6-305)”: the binding entry was “binds”.
